Results: US8642297B2, “Production of L-ribose and other rare sugars” (ZuChem, Inc., priority 2005, dated 2014)

Assay type: biochemical, Apium graveolens
Method: Many different variables were studied to maximize the expression and activity of MDH. MDH activity was monitored with the conversion of D-mannitol to D-mannose in the presence of NAD. The conversion was monitored spectrophotometrically by measuring the increasing concentration of NADH, the cofactor product of the oxidation of mannitol to mannose. For a given experiment, lysate protein concentrations were normalized.
The pH profile for MDH for the oxidation reactions was also tested. […] This range could be beneficial for in vitro bioconversions with enzymatic NAD cofactor recycling methods. Increasing the activity of MDH at neutral pH could improve in vivo fermentation activity as the interior of the E. coli cell has a pH lower than 9.0.[21]
The recombinant MDH was tested for activity at various temperatures. Lysates containing expressed MDH were incubated with D-mannitol and NAD at pH 9.0. Activity was measured by measuring the increased NADH concentration spectrophotometrically at A340nm. […] See, FIG. 12.
The thermostability of recombinant MDH was also tested. Lysates containing MDH were incubated at various temperatures. Aliquots of MDH were removed at various times to measure MDH activity using the assay described above. See, FIG. 13.

Question: What does the source list for “MDH: NAD-dependent mannitol-1-dehydrogenase from Apium graveolens, recombinantly expressed in E. coli”?
Answer: Temperature of maximal activity (lysates, D-mannitol and NAD at pH 9.0): approximately 39 °C; pH of highest activity (oxidation reactions): 9.0
